Results published in US20240269116A1, “USE OF MMP INHIBITORS FOR TREATING ACUTE RESPIRATORY DISTRESS SYNDROME” (Foresee Pharmaceuticals Co., Ltd., priority 2021, published 2024).
At least one structure is not confirmed: it was looked up by name or label, or the drawing left a doubt.

Tested on: LPS-induced acute lung injury (ALI)
Experiment: LPS-induced mice acute lung injury (ALI) model, BAL fluid cell counts and lung histology at 24 hours
Type: in vivo, Male C57BL/6 mice
Description: The compound of formula (F-I) was evaluated for the therapeutic efficacy in the LPS-induced mice ALI model. In this study, animals were anesthetized with 2.5% isoflurane inhalation. LPS was used to create ALI at the dose of 3 mg/kg in 50 μl via a direct intratracheal injection. For sham animals, an equal volume of saline solution was directly injected into the trachea. After LPS injection, the test article compound of formula (F-I) was dosed at different single oral doses and different therapeutic time points. Male C57BL/6 mice (n=100) were used in this study. DEX was used as positive control. Animals were randomly divided into 10 groups and dose regimens are described in Table 1. At 24 hours after injection, all animals were euthanized and processed for bronchoalveolar lavage (BAL) fluid collection from bilateral lungs and formalin-fixation of lung tissue pathology studies. [table]

[1] = lung histology at 24 hours of ALI, treatment at 4 or 8 hours of ALI, all dosages, vs model
[2] = single oral dose at 4 or 8 hours of ALI (F-I 1, 3, 10 mg/kg; DEX 3 mg/kg), BAL at 24 hours, vs Vehicle group

C[C@@H]1C[C@H]2[C@@H]3CCC4=CC(=O)C=C[C@]4(C)[C@@]3(F)[C@@H](O)C[C@]2(C)[C@@]1(O)C(=O)CO [DEX, Dexamethasone, reference compound]
alveolar damages (lung histology) [1]: reduction
bronchial and arteriole damages (lung histology) [1]: reduction
total lung injury (lung histology) [1]: reduction
neutrophils in BAL fluid [2]: significant reduction
total inflammatory cells in BAL fluid [2]: significant reduction
effect on BAL fluid cells, treatment at 8 hours vs 4 hours of ALI (treatment at 8 hours of ALI compared to 4 hours of ALI): better than at 4 hours of ALI
lung histology efficacy, treatment at 8 hours vs 4 hours of ALI (treatment at 8 hours of ALI compared to 4 hours of ALI, histology at 24 hours): much better efficacy
